# Laboratory results as given in patent US20050215548A1 (Cyclacel Limited, priority 2002, published 2005).
# What was measured:
# Assay type in all cases: cell-based
# [1] = test system: HeLa; test: 72-h MTT cytotoxicity assay, HeLa; conditions: Homo sapiens, Cervical carcinoma, read-out: Anti-proliferative activity, 72-h MTT IC50
# Experimental: (§1) Representative bisarylsulfonamide compounds were tested on a panel of transformed and non-transformed human cell lines, using a standard 72-h MTT cytotoxicity assay [Haselsberger K et al, ibid].
# [2] = test system: Messa-Dx5; test: 72-h MTT cytotoxicity assay, Messa-Dx5; conditions: Homo sapiens, MES-SA/Dx5, 72 h; Messa-Dx5, Uterus sarcoma; read-out: Anti-proliferative activity, 72-h MTT IC50
# Experimental: as §1
# [3] = test system: Saos-2; test: 72-h MTT cytotoxicity assay, Saos-2; conditions: Homo sapiens, Saos-2, Osteosracoma, read-out: Anti-proliferative activity, 72-h MTT IC50
# Experimental: as §1
# [4] = test system: HCT116; test: 72-h MTT cytotoxicity assay, HCT116; conditions: Homo sapiens, HCT-116, 72 h; HCT116, Colon carcinoma; read-out: Anti-proliferative activity, 72-h MTT IC50
# Experimental: as §1
# [5] = test system: IMR90; test: 72-h MTT cytotoxicity assay, IMR90; conditions: Homo sapiens, IMR-90, 72 h; IMR90, Lung fibroblasts; read-out: Anti-proliferative activity, 72-h MTT IC50
# Experimental: as §1
# [6] = test system: MCF7; test: 72-h MTT cytotoxicity assay, MCF7; conditions: Homo sapiens, MCF7, Breast adenocarcinoma, read-out: Anti-proliferative activity, 72-h MTT IC50
# Experimental: as §1
# [7] = test system: SK-N-MC; test: 72-h MTT cytotoxicity assay, SK-N-MC; conditions: Homo sapiens, Neuriepithelioma, read-out: Anti-proliferative activity, 72-h MTT IC50
# Experimental: as §1
# [8] = test system: Messa; test: 72-h MTT cytotoxicity assay, Messa; conditions: Homo sapiens, MES-SA, Uterus sarcoma, read-out: Anti-proliferative activity, 72-h MTT IC50
# Experimental: as §1
# [9] = test system: AGS; test: 72-h MTT cytotoxicity assay, AGS; conditions: Homo sapiens, Gastric adenocarcinoma, Table 2, read-out: Anti-proliferative activity, 72-h MTT IC50
# Experimental: (§2) The fluorescence polarisation competitive HDM2 binding assay described in Example 3 was used. Furthermore, the anti-proliferative potency of the compounds against three human tumour cell lines with different genetic make-up was also determined. […] The cell lines used were as follows: AGS, gastric adenocarcinoma, wild-type p53; H1299, large cell lung carcinoma, p53 null, low HDM2; SJSA-1, primitive multipotential bone sarcoma, wild-type p53, overexpressed HDM2.
# as §1
# [10] = test system: HT29; test: 72-h MTT cytotoxicity assay, HT29; conditions: Homo sapiens, HT-29, 72 h; HT29, Colon adenocarcinoma; read-out: Anti-proliferative activity, 72-h MTT IC50
# Experimental: as §1
# [11] = test system: H1299; test: 72-h MTT cytotoxicity assay, H1299; conditions: Homo sapiens, NCI-H1299, 72 h; H1299, Large cell lung carcinoma; Table 2; read-out: Anti-proliferative activity, 72-h MTT IC50
# Experimental: as §2, §1
# [12] = test system: U2OS; test: 72-h MTT cytotoxicity assay, U2OS; conditions: Homo sapiens, Osteosracoma, read-out: Anti-proliferative activity, 72-h MTT IC50
# Experimental: as §1
# [13] = test system: sarcoma cell lines; test: 72-h MTT panel, average sarcomas; conditions: Homo sapiens, read-out: Anti-proliferative activity, 72-h MTT IC50, Average sarcomas
# Experimental: as §1
# (§3) This differential selectivity further supports the notion that the bisarylsulfonamides modulate cellular HDM2 function. It is known that HDM2 amplification is particularly common in soft tissue sarcomas and osteosarcomas [Momand J et al, ibid; Bartel F, Meye A, Wurl P, Kappler M, Bache M, Lautenschlager C, Grunbaum U, Schmidt H, Taubert H; Int. J. Cancer 2001; 95: 168-175].
# [14] = test system: Lovo; test: 72-h MTT cytotoxicity assay, Lovo; conditions: Homo sapiens, Colon adenocarcinoma, read-out: Anti-proliferative activity, 72-h MTT IC50
# Experimental: as §1
# [15] = test system: WI38; test: 72-h MTT cytotoxicity assay, WI38; conditions: Homo sapiens, WI-38, 72 h; WI38, Lung fibroblasts; read-out: Anti-proliferative activity, 72-h MTT IC50
# Experimental: as §1
# [16] = test system: Nci-H460; test: 72-h MTT cytotoxicity assay, Nci-H460; conditions: Homo sapiens, Nci-H460, Large cell lung carcinoma, read-out: Anti-proliferative activity, 72-h MTT IC50
# Experimental: as §1
# [17] = test system: transformed human cell lines; test: 72-h MTT panel, average transformed; conditions: read-out: Anti-proliferative activity, 72-h MTT IC50, Average transformed
# Experimental: as §1, §3
# [18] = test system: non-transformed human cell lines; test: 72-h MTT panel, average non-transformed; conditions: read-out: Anti-proliferative activity, 72-h MTT IC50, Average non-transformed
# Experimental: as §1, §3
# [19] = test system: SKUT-1; test: 72-h MTT cytotoxicity assay, SKUT-1; conditions: Homo sapiens, SK-UT-1, 72 h; SKUT-1, Uterus leiomyosarcoma; read-out: Anti-proliferative activity, 72-h MTT IC50
# Experimental: as §1
# [20] = test system: NaCat; test: 72-h MTT cytotoxicity assay, NaCat; conditions: Keratinocyte, Human keratinocytes, read-out: Anti-proliferative activity, 72-h MTT IC50
# Experimental: as §1
# [21] = test system: A549; test: 72-h MTT cytotoxicity assay, A549; conditions: Homo sapiens, A549, Lung carcinoma, read-out: Anti-proliferative activity, 72-h MTT IC50
# Experimental: as §1
# [22] = test system: DU145; test: 72-h MTT cytotoxicity assay, DU145; conditions: Homo sapiens, DU-145, 72 h; DU145, Prostate carcinoma; read-out: Anti-proliferative activity, 72-h MTT IC50
# Experimental: as §1
# [23] = test system: HS27; test: 72-h MTT cytotoxicity assay, HS27; conditions: Homo sapiens, HS27, Foreskin fibroblasts, read-out: Anti-proliferative activity, 72-h MTT IC50
# Experimental: as §1
smiles,measurement,setting,value
"CC[C@H](CO)Nc1nc(NCc2ccccc2)c2ncn(C(C)C)c2n1 [Roscovitine, reference compound]",IC50,[1],16.1 µM
same,IC50,[2],5.3 µM
same,IC50,[3],17.4 µM
same,IC50,[4],9.7 µM
same,IC50,[5],44.2 µM
same,IC50,[6],12.1 µM
same,IC50,[7],7.1 µM
same,IC50,[8],9.9 µM
same,IC50,[9],10.7 µM
same,IC50,[10],15.6 µM
same,IC50,[11],11.9 µM
same,IC50,[12],16.4 µM
same,IC50,[13],13.8 ± 5.1 µM
same,IC50,[14],13.8 µM
same,IC50,[15],34.5 µM
same,IC50,[16],12.8 µM
same,IC50,[17],12.3 ± 3.7 µM
same,IC50,[18],40.6 ± 5.3 µM
same,IC50,[19],10.5 µM
same,IC50,[20],16.3 µM
same,IC50,[21],9.2 µM
same,IC50,[22],8.5 µM
same,IC50,[23],43.1 µM
